# The other results are listed elsewhere or left out. Shown are side measurements of this screen, not its main read-out; they come without a call. Compounds called inactive in the main read-out are mostly missing here. Potencies come from curve fits of mixed quality, noted in brackets.
# Test: IkB Signaling
# Conditions: ABC-DLBCL IkBa-CBG/CBR dual luciferase ratio (green luciferase fused to IkBa over red control in OCI-Ly3 lymphoma cells), 4 h
# Outline: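 Luminescence ratio of IκBα-fused green versus native red beetle luciferase in OCI-Ly3 cells, 4 h post-doxycycline with compound; red signal alone, scaled from basal (0%) to zero light (-100%), flagged nonspecific or cytotoxic effects.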
# [1] = measured here: control luc red channel unless noted
# [2] = measured here: IkB-luc green channel
# [3] = measured here: control luc red channel
structure (smiles),measurement,setting,value
CCOc1ccc(-c2nc(Cn3ccn4nc(-c5ccc(OCC)c(Cl)c5)cc4c3=O)c(C)o2)cc1,AC50,[1],"0.2 µM [rising, full curve]"
Cc1ccccc1Nc1cc(C(=O)NCc2cccs2)c2ccccc2n1,AC50,[1],"20 µM [falling, partial curve]"
COc1ccc(C)cc1N(C)C(=O)c1c2c(nc3ccccc13)C(=O)N(C1CCCCC1)C2,AC50,[1],"12.6 µM [falling, single point]"
Cc1cccc(OCCn2c(SCC(=O)O)nc3ccccc32)c1,AC50,[1],"0.158 µM [rising, full curve, poor fit]"
COc1ccc(Nc2ncc(C(=O)N3CCN(c4ccc(F)cc4)CC3)c3ccccc23)cc1,AC50,[1],"7.94 µM [falling, partial curve]"
CCOC(=O)CCSc1nnc(-c2cccnc2)n1-c1ccccc1OC,AC50,[1],"2.51 µM [falling, partial curve]"
Cc1ccsc1C(=O)OCC(=O)c1cc2ccccc2o1,AC50,[1],"31.6 µM [falling, partial curve]"
COC(=O)c1ccc(NC(=O)c2ccccc2NS(C)(=O)=O)cc1,AC50,[1],"20 µM [falling, partial curve]"
O=C(CN1C(=O)CCc2cc(S(=O)(=O)N3CCOCC3)ccc21)Nc1cccc(C(F)(F)F)c1,AC50,[1],"25.1 µM [falling, single point]"
CCOc1cccc(C(=O)Nc2cc(-c3ccc(C)cc3)no2)c1,AC50,[1],"3.98 µM [falling, partial curve]"
CCCCCCOc1ccc(C2C(=O)N(C3CCCCC3)CC(=O)N2CCCC)cc1 (stereo not given),AC50,[1],"15.8 µM [falling, partial curve]"
COc1ccc(NC(=O)CNC(=O)Cn2c(C)cc3ccccc3c2=O)cc1OC,AC50,[1],"5.01 µM [falling, single point]"
O=C(Nc1sc2c(c1C(=O)N1CCCCC1)CCCC2)c1ccccc1Cl,AC50,[1],"20 µM [falling, single point]"
CCCS(=O)(=O)N1CCCC(C(=O)NCCOC)C1 (stereo not given),AC50,[1],"31.6 µM [rising, single point]"
CCOC(=O)c1c(NC(=O)c2cccs2)sc2c1CCN(C(=O)OCC)C2,AC50,[1],"3.98 µM [falling, full curve, poor fit]"
O=C1c2ccccc2C(=O)N1SC1CCCCC1,AC50,[1],"39.8 µM [falling, single point]"
CCCCN(CCCC)C1=C(C(=O)c2ccccc2)N(C)S(=O)(=O)c2ccccc21,AC50,[1],"39.8 µM [falling, single point]"
O=C(NCc1ccccc1)c1c[nH]c2ccc(S(=O)(=O)Nc3ccc4c(c3)OCCO4)cc2c1=O,AC50,[1],"10 µM [falling, partial curve]"
COc1ccccc1NC(=O)CSC1=Nc2ccccc2C2=NC(CCC(=O)NCc3cccs3)C(=O)N12 (stereo not given),AC50,[1],"39.8 µM [falling, single point]"
O=C(Nc1ccc(N2CCN(C(=O)c3ccco3)CC2)c(Cl)c1)c1c(F)c(F)c(F)c(F)c1F,AC50,[1],"10 µM [falling, partial curve]"
Cn1c(=O)[nH]c2cc(-c3noc(-c4cccc(Cl)c4)n3)ccc21,AC50,[1],"0.631 µM [rising, full curve, poor fit]"
CCCNC(=O)Cn1nc(-c2ccc(F)cc2)c2cnc3ccc(F)cc3c21,AC50,[1],"0.0794 µM [rising, full curve]"
COc1ccc(NC(=O)c2ccc(CN3CCN(c4ccccc4)CC3)cc2)cc1OC,AC50,[1],"12.6 µM [falling, partial curve]"
CCC(C)NC(=O)c1cccc(NC(=O)c2nsc3ccccc23)c1 (stereo not given),AC50,[1],"6.31 µM [rising, single point]"
COc1cccc(Cn2c(=O)cnc3cnc(Nc4cccc(OC)c4)nc32)c1,AC50,[1],"3.16 µM [falling, partial curve] [measured here: IkB-luc green channel]"
Clc1ccc(C(c2ccc(Cl)cc2)n2cc[n+](C[C@@H](OCc3ccc(Cl)cc3Cl)c3ccc(Cl)cc3Cl)c2)cc1,AC50,[2],"39.8 µM [falling, single point]"
same,AC50,[3],"31.6 µM [falling, partial curve]"
CCC(=O)Nc1ccc(NC(=O)c2ccccc2Cl)nc1,AC50,[1],"7.94 µM [falling, partial curve]"
CCc1ccc(NC(=O)CSc2nc3c(sc4ccccc43)c(=O)n2CCCOC(C)C)cc1,AC50,[1],"3.16 µM [rising, full curve, poor fit]"
COc1ccc(-c2nc3ccc(NS(=O)(=O)c4ccc(Cl)cc4)cc3o2)cc1,AC50,[1],"15.8 µM [falling, partial curve]"
Cc1ccc(CNC(=O)c2ccc(CSCc3ccccc3C)o2)cc1,AC50,[1],"20 µM [falling, single point]"
COc1ccc(Cc2nnc(-c3cccc(C)c3)o2)cc1OC,AC50,[1],"3.16 µM [rising, partial curve]"
CCCCOC(=O)n1c(SCC(=O)N(CC)CC)nc2ccccc21,AC50,[1],"10 µM [falling, partial curve]"
O=C(CSc1cn(CC(=O)N2CCOCC2)c2ccccc12)Nc1ccccc1F,AC50,[1],"20 µM [falling, single point]"
Cc1cc2ccccc2n1CCNC(=O)c1cccc(Br)c1,AC50,[1],"31.6 µM [falling, partial curve]"
Cc1ccc(S(=O)(=O)Nc2ccc3c(c2)CCCN3C(=O)c2cccs2)cc1,AC50,[1],"39.8 µM [falling, single point]"
COc1ccc(OC)c(CCNC(=O)CCCn2c(=O)c3cccn3c3ccccc32)c1,AC50,[1],"6.31 µM [falling, single point]"
COc1ccc2oc(=O)cc(CN3CCN(Cc4ccccc4)CC3)c2c1,AC50,[1],"20 µM [falling, single point]"
Cc1cccc(N2CCN(C(=O)c3cc4c(C)nc5ccccc5c4o3)CC2)c1C,AC50,[1],"12.6 µM [falling, partial curve]"
CCN(C(=O)c1cc2c(s1)-c1c(C)cccc1OC2)c1ccccc1F,AC50,[1],"0.631 µM [falling, full curve]"
COc1ccc(CC(=O)N2CCc3cc(OC)c(OC)cc3C2COc2ccc(OC)cc2)cc1 (stereo not given),AC50,[1],"39.8 µM [falling, single point]"
CCC(=O)N1CCc2cc(Br)cc(S(=O)(=O)Nc3ccc(C)cc3C)c21,AC50,[1],"6.31 µM [rising, single point]"
Cc1ccc2c(c1)-c1cc(C)nn1C(c1sccc1C)N2 (stereo not given),AC50,[1],"39.8 µM [falling, single point]"
COc1cccc(NC(=O)c2ccccc2-c2nc(-c3cccc(C)c3)no2)c1,AC50,[1],"6.31 µM [falling, partial curve]"
Cc1ccc(C)c(NC(=O)c2cnn(-c3cccc(F)c3)c2C2CCN(C(=O)OC(C)(C)C)CC2)c1,AC50,[1],"12.6 µM [falling, partial curve]"
O=C1CC(c2nc3ccccc3[nH]2)CN1c1cccc(Cl)c1 (stereo not given),AC50,[1],"15.8 µM [falling, partial curve]"
Cc1sc2nc3ccc(N4CCCCC4)nn3c(=O)c2c1C,AC50,[1],"25.1 µM [falling, partial curve]"
CCCCNc1nc2c(c(=O)n(Cc3ccc(Cl)cc3)c(=O)n2C)n1C,AC50,[1],"15.8 µM [falling, partial curve]"
O=C(Nc1cc(=O)c2ccccc2o1)N1CCCCC1,AC50,[1],"39.8 µM [falling, single point]"
COc1cccc(CSc2nc3cc(C(=O)NC4CCCC4)ccc3c(=O)n2Cc2ccccc2)c1,AC50,[1],"0.2 µM [falling, full curve]"
COc1ccc(-n2cc(C(=O)NCc3ccccc3)c3ccccc3c2=O)cc1,AC50,[1],"12.6 µM [falling, partial curve]"
CC1Cc2ccccc2N1S(=O)(=O)c1cccc(C(=O)c2nccn2C)c1 (stereo not given),AC50,[1],"20 µM [falling, partial curve]"
Cc1cc(Cl)ccc1NC(=O)c1cc(S(=O)(=O)N2CCOCC2)cn1C,AC50,[1],"12.6 µM [rising, partial curve, poor fit]"
O=C(c1ccc2c(c1)N(Cc1ccc(Cl)cc1)C(=O)c1ccccc1S2=O)N1CCOCC1 (stereo not given),AC50,[1],"15.8 µM [falling, partial curve]"
Cc1ccc(CNC(=O)CCS(=O)(=O)c2cc(Br)cc3c2N(C(=O)C2CC2)CC3)o1,AC50,[2],"39.8 µM [rising, single point]"
same,AC50,[3],"15.8 µM [falling, partial curve]"
Cc1cc(C)c2c(CC(=O)N3CCN(c4cccc(Cl)c4)CC3)coc2c1,AC50,[1],"31.6 µM [falling, single point]"
COc1cccc(N2CCN(C(=O)c3ccc(Cn4c(=O)[nH]c5cc(OC)c(OC)cc5c4=O)cc3)CC2)c1,AC50,[1],"10 µM [falling, partial curve]"
O=C(c1ccc(N2CN(C(=O)c3ccco3)c3nc4ccccc4nc32)cc1)N1CCOCC1,AC50,[1],"12.6 µM [falling, partial curve]"
COc1ccc(C(CNC(=O)c2oc3ccc(Cl)cc3c2C)N2CCCCC2)cc1 (stereo not given),AC50,[1],"39.8 µM [falling, single point]"
COc1ccc(NC(=O)Cn2c(SCc3cc(C)ccc3C)nc3ccncc32)c(OC)c1OC,AC50,[1],"12.6 µM [falling, partial curve]"
COc1ccccc1N1CCN(CCCCN2C(=O)c3ccccc3C2=O)CC1,AC50,[1],"6.31 µM [falling, full curve, poor fit]"
COc1ccc2c(CNCc3cccs3)c(C(=O)O)n(Cc3ccccc3)c2c1,AC50,[1],"12.6 µM [falling, partial curve]"
Cc1c(CCNC(=O)c2ccc(Br)o2)sc2nc(-c3ccc(F)cc3)nn12,AC50,[2],"39.8 µM [falling, partial curve, poor fit]"
same,AC50,[3],"39.8 µM [falling, single point]"

# Four records drawn at random from the list so far, as already listed:
structure (smiles),measurement,setting,value
CCC(=O)N1CCc2cc(Br)cc(S(=O)(=O)Nc3ccc(C)cc3C)c21,AC50,[1],"6.31 µM [rising, single point]"
Cc1ccc(CNC(=O)CCS(=O)(=O)c2cc(Br)cc3c2N(C(=O)C2CC2)CC3)o1,AC50,[2],"39.8 µM [rising, single point]"
COC(=O)c1ccc(NC(=O)c2ccccc2NS(C)(=O)=O)cc1,AC50,[1],"20 µM [falling, partial curve]"
Cc1c(CCNC(=O)c2ccc(Br)o2)sc2nc(-c3ccc(F)cc3)nn12,AC50,[3],"39.8 µM [falling, single point]"
